{"source": "PubChem BioAssay AID1347076", "about": "(National Center for Advancing Translational Sciences (NCATS), 2019)", "note": "About 13,000 (3.2%) of roughly 400,000 compounds were called active. Inconclusive means that the source gave no clear call. Such entries were picked first, then a sample of the others. Calls follow the shape of the dose curve; as a rule, active = well fitted cell-killing curve with a large enough effect; inconclusive = small, poorly fitted or top-dose-only effect, or effect the other way; inactive = flat fitted curve, though single readings scatter. Where the call is inconclusive, the potency comes from a doubtful curve fit."}
{"test": "qHTS assay for MDR1-selective chemotherapeutics: Primary screen using the drug-selected MDR subline cells KB-V1; also: nearly all actives have a fitted effect of over 60% in size; also: potency is read from the fitted curve at half-maximal effect; as to activity change, negative = cytotoxicity: % is scaled to controls: 0 for no effect and ±100 for the full control effect", "details": "KB-V1 MDR cells viability, CellTiter-Glo, 72 h; activity change, negative = cytotoxicity: at 46.1 µM (top of the series)", "outline": "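Potencies derive from concentration-effect curves fitted to normalized luminescence (CellTiter-Glo) of KB-V1 cells treated for 72 h at 37 degrees C in phenol-red-free DMEM containing 10% FBS.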"}
{"molecule": "COc1cc(/C=C(\\C#N)C(=O)NCC2CCCO2)ccc1OCC(=O)O", "note": "(stereo unspecified)", "Potency": "inconclusive: 29.1 µM [cytotoxic, single point]"}
{"molecule": "O=C(O)COc1ccc2c(c1)O/C(=C\\c1ccco1)C2=O", "Potency": "inconclusive: 29.1 µM [rising, single point]"}
{"molecule": "Cc1ccccc1Nc1nc(N)nc(COC(=O)CCC(=O)c2ccc(F)cc2)n1", "Potency": "inconclusive: 13 µM [rising, partial curve]"}
{"molecule": "S=C(NCc1cccc(Cl)c1)NC1CCCCC1", "Potency": "active: 18.4 µM"}
{"molecule": "COC(=O)CS(=O)(=O)c1nc2ccccc2nc1N1CCCCC1", "activity change, negative = cytotoxicity": "inactive: 14.1%"}
{"molecule": "COc1ccccc1N1CCN(C(=O)c2cc3c(-c4ccc(Cl)cc4)nn(C)c3s2)CC1", "Potency": "inconclusive: 7.31 µM [rising, partial curve, poor fit]"}
{"molecule": "COc1ccccc1N(CCC#N)C(=O)CSc1ccc2c(c1)OCCO2", "Potency": "inconclusive: 16.4 µM [cytotoxic, partial curve]"}
{"molecule": "Cc1n[nH]c(C)c1S(=O)(=O)N(CC(=O)NC(C)c1ccccc1)c1ccc(C(C)C)cc1", "note": "(stereo unspecified)", "activity change, negative = cytotoxicity": "inactive: -2.34%"}
{"molecule": "Cc1ccc(NC(=O)Cn2c(=O)c3cc(Cl)ccc3n3nncc23)cc1", "Potency": "inconclusive: 16.4 µM [rising, partial curve, poor fit]"}
{"molecule": "COCCNCc1ccccc1[N+](=O)[O-]", "activity change, negative = cytotoxicity": "inactive: -12.6%"}
{"molecule": "Cc1cccc(CS(=O)(=O)Cc2ccc(C(=O)O)o2)c1", "Potency": "inconclusive: 29.1 µM [rising, single point]"}
{"molecule": "CCN1CCN(c2ccc(NC(=O)c3cc4ccccc4cc3OC)cc2C)CC1", "Potency": "inconclusive: 29.1 µM [cytotoxic, single point]"}
{"molecule": "CC1=C(c2ccc(C)c(C)c2)S(=O)(=O)N=C1N1CCC(C(=O)NCCc2ccco2)CC1", "activity change, negative = cytotoxicity": "inactive: 13.3%"}
{"molecule": "OCCCNc1nc(-c2ccc(Cl)cc2)nc2ccccc12", "activity change, negative = cytotoxicity": "inactive: 11.8%"}
{"molecule": "O=C(NCCCCCCNC(=O)c1ccc(Br)s1)c1ccc(Br)s1", "Potency": "active: 3.26 µM"}
{"molecule": "CS(=O)(=O)c1ccc2nc(NC(=O)CCNC(=O)c3ccc(Cl)cc3)sc2c1", "Potency": "inconclusive: 3.26 µM [rising, partial curve, poor fit]"}
{"molecule": "COc1ccccc1OCCCCCc1c(C)n[nH]c1C", "Potency": "active: 4.61 µM"}
{"molecule": "CN1CCN(c2ccc(-c3cccc(NC(=O)COc4ccc(Cl)cc4)c3)nn2)CC1", "activity change, negative = cytotoxicity": "inactive: 0.426%"}
{"molecule": "C#Cc1ccc(NC(=O)C2(C)CCN2C(=O)CC(c2ccccc2)c2ccccc2)cc1", "note": "(stereo unspecified)", "Potency": "inconclusive: 23.1 µM [cytotoxic, single point]"}
{"molecule": "CCC1(c2ccccc2)NC(=O)N(CC(=O)N2CCc3ccccc32)C1=O", "note": "(stereo unspecified)", "Potency": "active: 11.6 µM"}
{"molecule": "CCCn1c(/C=C/c2ccco2)nc2ccccc21", "Potency": "inconclusive: 23.1 µM [cytotoxic, partial curve, poor fit]"}
